These are yes or no findings as the source states them, for the method shown. In cells and extracts the contact can be indirect. A yes stands for co-enrichment or nearness to the bait. Other partners may have been found.
Assays:
[1] = molecular target: flag-tagged full-length INTS15 (UniProt Q96N11); assay: affinity purification with mass spectrometry
[2] = molecular target: flag-tagged full-length INTS10 (UniProt Q9NVR2); assay: affinity purification with mass spectrometry

Amino acid sequences for entries named in this document (tags omitted).
UniProt Q96N11: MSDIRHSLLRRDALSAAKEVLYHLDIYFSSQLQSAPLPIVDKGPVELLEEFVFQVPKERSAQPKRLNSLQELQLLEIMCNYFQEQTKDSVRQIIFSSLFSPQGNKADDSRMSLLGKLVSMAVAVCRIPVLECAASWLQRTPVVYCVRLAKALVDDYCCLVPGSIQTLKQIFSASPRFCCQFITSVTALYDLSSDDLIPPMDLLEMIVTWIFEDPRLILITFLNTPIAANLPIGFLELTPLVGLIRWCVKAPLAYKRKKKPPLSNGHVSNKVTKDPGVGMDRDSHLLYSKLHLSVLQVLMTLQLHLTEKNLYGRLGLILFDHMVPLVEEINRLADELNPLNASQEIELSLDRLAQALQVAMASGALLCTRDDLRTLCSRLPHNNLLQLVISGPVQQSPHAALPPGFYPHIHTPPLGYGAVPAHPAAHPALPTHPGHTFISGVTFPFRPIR
UniProt Q9NVR2: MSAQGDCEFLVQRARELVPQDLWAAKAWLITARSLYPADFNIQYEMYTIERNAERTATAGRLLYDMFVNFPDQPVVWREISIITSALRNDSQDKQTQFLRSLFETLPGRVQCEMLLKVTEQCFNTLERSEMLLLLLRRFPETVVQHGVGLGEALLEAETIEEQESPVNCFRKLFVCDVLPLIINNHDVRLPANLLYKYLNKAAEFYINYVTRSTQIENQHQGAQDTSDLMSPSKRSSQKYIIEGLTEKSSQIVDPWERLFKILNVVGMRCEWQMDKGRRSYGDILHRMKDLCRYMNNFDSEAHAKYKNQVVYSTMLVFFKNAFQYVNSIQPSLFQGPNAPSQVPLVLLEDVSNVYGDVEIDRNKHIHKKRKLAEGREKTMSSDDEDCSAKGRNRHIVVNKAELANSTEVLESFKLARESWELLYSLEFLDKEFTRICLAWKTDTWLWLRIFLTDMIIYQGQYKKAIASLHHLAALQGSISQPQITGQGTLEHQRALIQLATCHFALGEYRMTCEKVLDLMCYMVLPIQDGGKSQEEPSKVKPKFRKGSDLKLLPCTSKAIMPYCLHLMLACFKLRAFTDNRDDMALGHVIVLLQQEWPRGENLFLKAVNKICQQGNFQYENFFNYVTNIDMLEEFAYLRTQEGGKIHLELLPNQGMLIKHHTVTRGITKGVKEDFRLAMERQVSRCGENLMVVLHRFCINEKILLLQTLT
UniProt Q9NVM9: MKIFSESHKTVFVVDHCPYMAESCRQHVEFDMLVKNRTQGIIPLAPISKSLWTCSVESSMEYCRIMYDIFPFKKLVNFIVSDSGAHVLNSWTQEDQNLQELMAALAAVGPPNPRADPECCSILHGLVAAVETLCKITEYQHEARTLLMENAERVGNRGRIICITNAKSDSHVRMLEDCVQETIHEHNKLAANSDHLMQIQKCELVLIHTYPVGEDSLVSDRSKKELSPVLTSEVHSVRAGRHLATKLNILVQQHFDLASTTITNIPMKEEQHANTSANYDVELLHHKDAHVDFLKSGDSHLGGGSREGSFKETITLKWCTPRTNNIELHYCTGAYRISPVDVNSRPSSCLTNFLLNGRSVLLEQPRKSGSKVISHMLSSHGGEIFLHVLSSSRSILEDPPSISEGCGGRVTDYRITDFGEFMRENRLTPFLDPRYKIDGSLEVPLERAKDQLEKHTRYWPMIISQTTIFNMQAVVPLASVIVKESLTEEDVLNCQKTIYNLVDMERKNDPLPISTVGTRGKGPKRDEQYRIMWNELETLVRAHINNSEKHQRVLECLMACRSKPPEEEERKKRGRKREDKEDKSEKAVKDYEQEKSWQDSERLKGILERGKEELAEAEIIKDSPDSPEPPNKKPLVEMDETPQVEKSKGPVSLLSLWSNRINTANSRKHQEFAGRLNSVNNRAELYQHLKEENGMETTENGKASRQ
UniProt Q96SY0: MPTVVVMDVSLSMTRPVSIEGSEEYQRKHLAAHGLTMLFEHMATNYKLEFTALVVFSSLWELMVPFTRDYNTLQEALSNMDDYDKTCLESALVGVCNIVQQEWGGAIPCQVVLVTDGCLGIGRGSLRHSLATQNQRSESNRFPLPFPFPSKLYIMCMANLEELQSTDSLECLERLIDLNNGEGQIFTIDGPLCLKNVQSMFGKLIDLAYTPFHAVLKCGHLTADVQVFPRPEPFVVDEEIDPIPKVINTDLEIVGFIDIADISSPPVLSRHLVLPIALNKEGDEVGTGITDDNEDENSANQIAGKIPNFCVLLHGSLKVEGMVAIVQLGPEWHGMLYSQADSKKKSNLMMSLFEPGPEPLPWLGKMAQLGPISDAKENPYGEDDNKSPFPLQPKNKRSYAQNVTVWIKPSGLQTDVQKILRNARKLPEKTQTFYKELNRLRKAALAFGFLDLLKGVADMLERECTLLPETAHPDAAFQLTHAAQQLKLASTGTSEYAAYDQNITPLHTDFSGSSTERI

| Substance | binding [1] | binding [2] |
| --- | --- | --- |
| INTS10 (endogenous, 293T) (from UniProt Q9NVR2 1-710) | binds |  |
| INTS13 (endogenous, 293T) (from UniProt Q9NVM9 1-706) | binds | binds |
| INTS14 (endogenous, 293T) (from UniProt Q96SY0 1-518) | binds |  |
| INTS15 (endogenous, 293T) (from UniProt Q96N11 1-449) |  | binds |

— article doi:10.1101/2024.02.07.579305
